This note sets out measurements from patent US20110124560A1 (University of Pennsylvania, published 2011).

Amino acid sequences for entries named in this document (tags omitted).
UniProt Q9BZS1: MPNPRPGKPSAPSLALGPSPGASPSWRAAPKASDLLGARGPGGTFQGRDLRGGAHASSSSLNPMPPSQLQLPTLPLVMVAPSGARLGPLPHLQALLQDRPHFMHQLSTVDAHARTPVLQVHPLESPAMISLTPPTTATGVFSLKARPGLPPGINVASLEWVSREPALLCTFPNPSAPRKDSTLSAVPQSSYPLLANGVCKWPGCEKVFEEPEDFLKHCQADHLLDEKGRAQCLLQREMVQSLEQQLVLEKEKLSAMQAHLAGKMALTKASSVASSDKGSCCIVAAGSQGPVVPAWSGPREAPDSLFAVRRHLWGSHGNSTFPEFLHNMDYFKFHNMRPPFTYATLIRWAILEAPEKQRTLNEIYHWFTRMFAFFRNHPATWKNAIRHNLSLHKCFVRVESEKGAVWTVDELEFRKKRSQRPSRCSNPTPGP

Assay [1] concerns the target T1, endogenous FOXP1 (human) (UniProt Q9H334).
T1 sequence (looked up): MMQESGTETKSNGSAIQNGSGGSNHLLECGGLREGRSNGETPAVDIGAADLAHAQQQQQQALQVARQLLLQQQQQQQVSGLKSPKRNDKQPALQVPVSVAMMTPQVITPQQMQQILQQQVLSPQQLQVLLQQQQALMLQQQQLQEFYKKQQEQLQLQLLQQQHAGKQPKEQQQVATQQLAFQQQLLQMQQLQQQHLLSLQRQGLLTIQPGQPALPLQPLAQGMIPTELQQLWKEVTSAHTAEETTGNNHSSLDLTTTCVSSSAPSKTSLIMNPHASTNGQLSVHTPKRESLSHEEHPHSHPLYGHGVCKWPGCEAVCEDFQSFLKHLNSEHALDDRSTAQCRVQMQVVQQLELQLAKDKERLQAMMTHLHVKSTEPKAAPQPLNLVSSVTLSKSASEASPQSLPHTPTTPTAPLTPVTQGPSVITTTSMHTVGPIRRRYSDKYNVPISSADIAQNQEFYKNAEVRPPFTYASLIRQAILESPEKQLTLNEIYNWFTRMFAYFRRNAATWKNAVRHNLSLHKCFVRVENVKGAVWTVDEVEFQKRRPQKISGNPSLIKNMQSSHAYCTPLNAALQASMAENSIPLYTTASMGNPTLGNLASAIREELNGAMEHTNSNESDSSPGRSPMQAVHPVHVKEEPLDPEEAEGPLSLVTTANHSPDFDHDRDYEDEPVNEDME
The assay is described as follows: immunoblot of co-immunoprecipitate (FIG. 4D legend).

The target of assay [2] is T1, endogenous FOXP1 (human). The assay is described as follows: endogenous co-immunoprecipitation with anti-FOXP1 JC12, immunoblot with anti-FOXP3 221D, normal control human T cell line. Background: In western blotting, separated proteins are transferred to a membrane and probed.
For assay [3], the target named is endogenous wild type FOXP3 (human) (UniProt Q9BZS1). The assay is described as follows: endogenous co-immunoprecipitation, human CD4+CD25+ T cells.
The target in assay [4] is FOXP3 expressed in transfected Jurkat E6.1 T cells (human) (UniProt Q9BZS1). The assay is described as follows: co-immunoprecipitation, FOXP3 transfected Jurkat E6.1 T cells.

Results are given in words; binding and its absence hold for the method and conditions named. Binding seen in cells or lysates may run through a third protein. Some entries that bind do so weakly or less than the wild type.

As for “endogenous wild type FOXP3 (from UniProt Q9BZS1 1-431)”, the binding entry with endogenous FOXP1 (human) [1] and in the assay with endogenous FOXP1 (human) [2] was “binds” in each case.

B1: endogenous FOXP1 (protein, human, UniProt Q9H334 1-677, looked up)
chain: MMQESGTETKSNGSAIQNGSGGSNHLLECGGLREGRSNGETPAVDIGAADLAHAQQQQQQALQVARQLLLQQQQQQQVSGLKSPKRNDKQPALQVPVSVAMMTPQVITPQQMQQILQQQVLSPQQLQVLLQQQQALMLQQQQLQEFYKKQQEQLQLQLLQQQHAGKQPKEQQQVATQQLAFQQQLLQMQQLQQQHLLSLQRQGLLTIQPGQPALPLQPLAQGMIPTELQQLWKEVTSAHTAEETTGNNHSSLDLTTTCVSSSAPSKTSLIMNPHASTNGQLSVHTPKRESLSHEEHPHSHPLYGHGVCKWPGCEAVCEDFQSFLKHLNSEHALDDRSTAQCRVQMQVVQQLELQLAKDKERLQAMMTHLHVKSTEPKAAPQPLNLVSSVTLSKSASEASPQSLPHTPTTPTAPLTPVTQGPSVITTTSMHTVGPIRRRYSDKYNVPISSADIAQNQEFYKNAEVRPPFTYASLIRQAILESPEKQLTLNEIYNWFTRMFAYFRRNAATWKNAVRHNLSLHKCFVRVENVKGAVWTVDEVEFQKRRPQKISGNPSLIKNMQSSHAYCTPLNAALQASMAENSIPLYTTASMGNPTLGNLASAIREELNGAMEHTNSNESDSSPGRSPMQAVHPVHVKEEPLDPEEAEGPLSLVTTANHSPDFDHDRDYEDEPVNEDME
For the molecule B1, the binding entry in assay [3] and in assay [4] was “binds” each time.
